Assay results from paper PMC7819943, “Rice protein-binding microarrays: a tool to detect cis-acting elements near promoter regions in rice”.
The other results are listed elsewhere or left out.

The chains behind the UniProt entries cited, without tags or fusion partners.
UniProt Q0JBA9, entry or part of it: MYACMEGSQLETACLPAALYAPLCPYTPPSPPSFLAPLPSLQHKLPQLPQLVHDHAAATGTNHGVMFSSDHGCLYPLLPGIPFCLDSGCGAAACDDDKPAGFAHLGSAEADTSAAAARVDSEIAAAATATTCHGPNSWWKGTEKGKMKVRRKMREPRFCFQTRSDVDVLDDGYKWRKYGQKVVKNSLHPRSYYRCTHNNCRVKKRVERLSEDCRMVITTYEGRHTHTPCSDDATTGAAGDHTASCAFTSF

The sequences below were run against OsWRKY34 (Oryza sativa, UniProt Q0JBA9 1-250) (assay: protein-binding microarray (RPBM); PBS, 2% BSA, 51.3 ng/ul salmon testes DNA, 50 uM zinc acetate, 200 nM TF, 25 C, 1 h; high values mean tight binding). Conditions: protein: recombinant; tags: N-terminal polyhistidine and DsRed monomer fusion (pET32a); label: CyDye5-dUTP incorporated in the synthesized complementary strand; 3' TTTTT single-stranded linker to array surface; dsDNA, one strand shown.
Outline: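 Transcription factors were made in E. coli BL21-CodonPlus as N-terminal fusions to a polyhistidine tag and DsRed, then purified on Ni–NTA. After primer extension with Cy5-dUTP and blocking with 2% BSA, a custom Agilent array was exposed for 1 h at 25 °C to 200 nM protein in PBS, 2% BSA, salmon testes DNA and 50 µM zinc acetate. Washed arrays were scanned on an Axon 4000B, and the binding signal is per-feature fluorescence intensity in arbitrary units.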

Point of comparison: “GTTGTTTGGGCTTTGGGCCGGATCATGATATTGCAGTTATCGGAGTCACCTAGTGCAG”, binding signal 8550 fluorescence intensity (a.u.). Against it:
- TTCCCATGGTAACGATAGCCCAAGATTCATGGCCCAACCACGGAGTCACCTAGTGCAG — higher, 8850 fluorescence intensity (a.u.)
- AATCAACCTTTCAAAAAAGGGCGGGTTTTGCTAATTTTTTCGGAGTCACCTAGTGCAG — higher, 10300 fluorescence intensity (a.u.)
- AAAAAAGTTCATTTTGGGTTTCTGTGTATAAGTTTGACCACGGAGTCACCTAGTGCAG — higher, 9570 fluorescence intensity (a.u.)
- AGCTCCGCCGGCGCGTTGACTATGGGCGTGACGAGTTGCACGGAGTCACCTAGTGCAG — lower, 8060 fluorescence intensity (a.u.)
- TTTCCATATTCAGAGTTTCAGACTATAGTGCCTTTGATTTCGGAGTCACCTAGTGCAG — higher, 8820 fluorescence intensity (a.u.)
- TTTGTATACGCCCGTTGCCGCCCTATTTGACCATCGATAGCGGAGTCACCTAGTGCAG — higher, 14900 fluorescence intensity (a.u.)
- TCCACACTGCCACCTTGTGCAACTATCAACACCATTGCCTCGGAGTCACCTAGTGCAG — higher, 10300 fluorescence intensity (a.u.)
- GCTTGCTTGCTTGTTGCTTCCATTCCATTCCATTCCACACCGGAGTCACCTAGTGCAG — higher, 10400 fluorescence intensity (a.u.)
- GCCCACATTGCACATTACTTTCTTGGGCCGCAAGAAGATCCGGAGTCACCTAGTGCAG — higher, 11100 fluorescence intensity (a.u.)
- CCATCTAAAACAGTTCGCGTGCAGTCCAGCTCCAGCCCAACGGAGTCACCTAGTGCAG — higher, 10200 fluorescence intensity (a.u.)
- AAACGAACCTATACTTAACTTTCTCTATTTTGAAACCCTACGGAGTCACCTAGTGCAG — higher, 9220 fluorescence intensity (a.u.)
- GGGGTTCTTGGTCAAGCTATGGTTGTCCTGGCTGTGAATTCGGAGTCACCTAGTGCAG — higher, 13400 fluorescence intensity (a.u.)
- AACCACTCATCCCACCTTGCTGCTACGTGGCCAACCAACTCGGAGTCACCTAGTGCAG — higher, 13400 fluorescence intensity (a.u.)
- TGTCGCCACTAGCCGCCGCCAACCACCAACCCGTCATCGACGGAGTCACCTAGTGCAG — higher, 8930 fluorescence intensity (a.u.)
- ACCGGTTTCGTGGGGCTGGAATACGAGGTTGATCTCGTTACGGAGTCACCTAGTGCAG — lower, 8020 fluorescence intensity (a.u.)
- GGTCCAATCAAACGGTCATTCTTGTGTTTTCCCTGTGTTTCGGAGTCACCTAGTGCAG — higher, 14400 fluorescence intensity (a.u.)
- CCTTTTGAGTTTTGGCAGATTGTTGCAATTGTGGTATTCTCGGAGTCACCTAGTGCAG — higher, 10100 fluorescence intensity (a.u.)
- TCCTGTAGCAATTTTTTTTGGTTTTTTTTCGACTATACGACGGAGTCACCTAGTGCAG — lower, 8470 fluorescence intensity (a.u.)
- AGGATCTTTATACACATAGCTACCACAATGGCTACAATTACGGAGTCACCTAGTGCAG — lower, 8130 fluorescence intensity (a.u.)
- TCGATTCCCTCCGCTCCGGTGACCTCCTCGTCGATTCTTTCGGAGTCACCTAGTGCAG — higher, 10200 fluorescence intensity (a.u.)
- CATGATCATCATGAATCAATCACCCGCCGTCCGTTGCATCCGGAGTCACCTAGTGCAG — lower, 8140 fluorescence intensity (a.u.)
- CCTGCTCCTTGTGTTCCTCTCTCCTCTCCTCTCCTCCGCGCGGAGTCACCTAGTGCAG — higher, 9400 fluorescence intensity (a.u.)
- ACTATTCACCGATTTACTGTAGCGATCGATCTTGTTCGTTCGGAGTCACCTAGTGCAG — higher, 8830 fluorescence intensity (a.u.)
- GCTTCAACCTCTTGGTAACTTTCCTTTGAGTCTATCTCTCCGGAGTCACCTAGTGCAG — higher, 11500 fluorescence intensity (a.u.)
- ATTTCTCTTTTTGAATTCTTCTACATGTTTTCCTTCGCGCCGGAGTCACCTAGTGCAG — higher, 9440 fluorescence intensity (a.u.)
- CCATTGCAATCCTGTCGTCTATTTGTATTTGTTTTTTGTTCGGAGTCACCTAGTGCAG — higher, 11100 fluorescence intensity (a.u.)
- GGTGGGAGAGATAAAACCAAGACTCTAATATTCTCATGTTCGGAGTCACCTAGTGCAG — lower, 8040 fluorescence intensity (a.u.)
- AAGAGAAATATCTGGTTGCTCCAGCTTGGCATCGTTGACCCGGAGTCACCTAGTGCAG — higher, 9780 fluorescence intensity (a.u.)
- GACAGCTTAATTTACTCTGTTGTTTCCCATAGTCAAAAGTCGGAGTCACCTAGTGCAG — lower, 8040 fluorescence intensity (a.u.)
- AAACAAATTTACCACTACCATCCCAAGAAGCTGCTACTACCGGAGTCACCTAGTGCAG — higher, 8680 fluorescence intensity (a.u.)
- CGCTTATATAAACTCATTCCTAACTCGTTCTCATCCCAATCGGAGTCACCTAGTGCAG — higher, 8880 fluorescence intensity (a.u.)
- AAAATGGTATTTGATGTATTTTAATTATATGTTTGTTTTTCGGAGTCACCTAGTGCAG — higher, 8830 fluorescence intensity (a.u.)
- CACCATGGTCTTTACTGTAGTAGTTACTAATCTATGTATACGGAGTCACCTAGTGCAG — lower, 8220 fluorescence intensity (a.u.)
- CACCGCACGCGAGCCGCCTCACCTCGCGATCTCCCTCCTCCGGAGTCACCTAGTGCAG — higher, 9360 fluorescence intensity (a.u.)
- ACCACCACCACCACGGCCACGCGACCCAAAACCAAAGCGACGGAGTCACCTAGTGCAG — lower, 8150 fluorescence intensity (a.u.)
- CTCTACTTCTAATATTCCTTATTTTTTTAATTCCGAATTTCGGAGTCACCTAGTGCAG — higher, 8800 fluorescence intensity (a.u.)
- ACCCTAAACTGCAAAACCAGATATGTCGACCCTCGAATTACGGAGTCACCTAGTGCAG — lower, 8060 fluorescence intensity (a.u.)
- GACGGGTGTTTCTAGGGTTAAGGTTAGGTTTTTTTTTTGACGGAGTCACCTAGTGCAG — higher, 9680 fluorescence intensity (a.u.)
- CCTTGTTTGCTCGGTTTTTGTAAGTTGAGGGACGGGTCATCGGAGTCACCTAGTGCAG — higher, 18700 fluorescence intensity (a.u.)
- GCCCTCGCCCGCCGACGTCGCCGCCCCTGCCCACAGATTGCGGAGTCACCTAGTGCAG — lower, 8180 fluorescence intensity (a.u.)
- ATGCCGTCGCAATCTGATTTCGTTGTTACTAAAGCTCTCACGGAGTCACCTAGTGCAG — lower, 8110 fluorescence intensity (a.u.)
